PubChem BioAssay AID720505, Drosophila RNAi Screening Center | 2013

- Test: 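Fly regulators or components of the CRAC channel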 (primary screen)
- Cells: Drosophila S2R+ cells
- Reagents: long dsRNA against Drosophila genes
- Conditions: thapsigargin (2 µM) in calcium-free buffer to empty internal stores, then 2 mM calcium added back
- Read-out: 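Stores emptied by 2 µM thapsigargin without calcium, then 2 mM calcium re-added; fluo-4 fluorescence followed by FLIPR in 384-well plates, per-well averaged endpoint, raw; two screen passes, some wells retested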
- Reading the numbers: calcium signal and retest calcium signal: higher = more calcium entry after store depletion
- Active means: 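Knock-downs counted as hits when calcium entry dropped relative to STIM1 positive and Rho1 negative controls present on each plate; roughly 1500 genes called, with reductions of differing size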
- Calls: active = called as lowering calcium entry; inactive = not called
In all, the deposit lists about 20,000 reagents; below is a random part of those with a known target gene and a result. Of all reagents, about 2,100 (10%) were called active. 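Raw plate signals without normalisation; calls rest on control-based scores that were not deposited; replicate 2 separates called from uncalled poorly.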 Names joined by + are all predicted targets of the reagent. No sequences are given here. The record does not give: the amount of reagent, the time to read-out.

The opening 9 entries as a preview:
Target gene	dsRNA	calcium signal, replicate 1	calcium signal, replicate 2	retest calcium signal, replicate 1	retest calcium signal, replicate 2	Call
Ostgamma	DRSC03074	164	225			inactive
Cyp309a2	DRSC00526	178	132			inactive
HIP + HIP-R	DRSC18245	129	163			inactive
trk	DRSC03625	179	180			inactive
Ctps	DRSC10728	104	120			inactive
Ctps	DRSC10729	72.4	147			inactive
CG34393	DRSC00419	97.7	149			inactive
CG34393	DRSC00710	114	130			inactive
CG8520	DRSC07206	176	122			inactive

Main list, from the start:
Target gene	dsRNA	calcium signal, replicate 1	calcium signal, replicate 2	retest calcium signal, replicate 1	retest calcium signal, replicate 2	Call
Ostgamma	DRSC03074	164	225			inactive
Cyp309a2	DRSC00526	178	132			inactive
HIP + HIP-R	DRSC18245	129	163			inactive
trk	DRSC03625	179	180			inactive
Ctps	DRSC10728	104	120			inactive
Ctps	DRSC10729	72.4	147			inactive
CG34393	DRSC00419	97.7	149			inactive
CG34393	DRSC00710	114	130			inactive
CG8520	DRSC07206	176	122			inactive
CG31278	DRSC16051	153	104			inactive
mmm	DRSC10208	95.6	73.2			inactive
Phlpp	DRSC02065	133	103			inactive
Phlpp	DRSC22808	104	121			inactive
I-3	DRSC20479	244	125			inactive
RpLP0-like	DRSC06424	139	198			inactive
cid	DRSC05429	107	161			inactive
cid	DRSC07592	162	223			inactive
CG6927	DRSC18407	108	76.5			inactive
Osi17	DRSC12284	80.8	99.4			inactive
Pez	DRSC03397	146	73.9			inactive
CG13014	DRSC19533	71.9	135			active
eve	DRSC07614	82.7	114			inactive
CG43673 + CG43672	DRSC19452	73.8	110			inactive
CG43673 + CG43672	DRSC20108	80.7	127			inactive
CG32453	DRSC21673	171	89.5			inactive
Dnaaf4	DRSC02405	193	182			inactive
CG9451	DRSC11074	105	189			inactive
Hus1-like	DRSC12353	93.7	118			inactive
CG17325 + CG42305	DRSC02602	131	88.3			inactive
CG6793	DRSC10714	89.7	88.3			inactive
Apoltp	DRSC02508	92.9	142			inactive
Glo1	DRSC06657	108	131			inactive
CG13653	DRSC14653	284	182			inactive
CG2767	DRSC15451	97.2	144			inactive
Ufc1	DRSC07156	164	127			inactive
CG7656	DRSC10900	126	69.3			inactive
Gld2	DRSC15863	224	166			inactive
Gld2	DRSC23037	138	178			inactive
CG10737	DRSC05999	159	108			inactive
LPCAT	DRSC18157	54.1	76.6			active
LPCAT	DRSC18257	128	108			inactive
CG11267	DRSC09833	102	99.4			inactive
CG46339	DRSC14136	136	157			inactive
spoon	DRSC18299	113	68.9			inactive
Trc8	DRSC15437	77.9	159			inactive
eg	DRSC11885	122	171			inactive
Polr1B	DRSC00780	71.9	138			inactive
CG15515	DRSC15054	190	195			inactive
Usp1	DRSC14155	107	88.9			inactive
Exo84	DRSC15965	234	143			inactive
Sap-r	DRSC16849	113	140	6286	160	inactive
Sap-r	DRSC21916	82.4	240			inactive
zetaCOP	DRSC11412	66.9	136			active
bif	DRSC20313	116	72.9			inactive
CG3473	DRSC01915	119	112			inactive
Tsen34	DRSC22932	131	197			inactive
CG34396	DRSC04245	61.3	180			inactive
CG34396	DRSC04246	48.3	193			inactive
shot	DRSC05459	86	117			inactive
shot	DRSC05460	124	151			inactive
shot	DRSC07682	216	190			inactive
CG33337	DRSC13632	6335	162			inactive
CG5245	DRSC15750	144	130			inactive
CG13217	DRSC06339	97.8	115			inactive
Rpn1	DRSC11274	55.8	84.8			active
Sdr	DRSC15517	110	141			inactive
tgy	DRSC20045	141	139			inactive
CG12531	DRSC19466	65.7	106			active
CG31550	DRSC12197	156	153			inactive
CG31550	DRSC12198	84	153			inactive
CG15219	DRSC03715	142	115			inactive
Cyp9f2	DRSC16635	131	142			inactive
roh	DRSC04003	67	51.6			active
Trhn	DRSC08621	125	119			inactive
CG15818	DRSC02505	153	174			inactive
CG14926	DRSC02409	165	155			inactive
CG14105	DRSC10107	91.5	77.6			inactive
Rh7	DRSC10529	108	89.5			inactive
unc-5	DRSC05545	119	118	6409	94.9	inactive
unc-5	DRSC07711	96.7	161			inactive
unc-5	DRSC07712	84.6	184			inactive
Pdp1	DRSC08896					active
Pdp1	DRSC08897					active
Pdp1	DRSC11251	89.9	63.7			inactive
Pdp1	DRSC22973	86.4	69.3			inactive
